Data from article doi:10.1101/2021.07.23.453482 (bioRxiv, 2021).
Results are given in words; binding and its absence hold for the method and conditions named.

B1: BT3333^6S-GalNAc (enzyme, UniProt Q8A2H2 1-511)
chain: MKNVSRLLPLLPGIALLTGCNQKVQKDNGQNSQKPNIIYIFADDLGIGDLSCYGATKVSTPHIDRLAGQGVQFTNAYATSATSTPSRFGLLTGMYPWRQENTGIAPGNSELIIDTACVTMADMLKEAGYATGVVGKWHLGLGPKGGTDFNGHITPNAQSIGFDYEFVIPATVDRVPCVFVENGHVVGLDPNDPITVNYEHKVGDWPTGEENPELVKLKPSQGHNNTIINGIPRIGWMTGGKSALWKDEDIADIITNKAKSFIVSHKEEPFFLYMGTQDVHVPRVPHPRFAGKSGLGTRGDVILQLDWTIGEIMNTLDSLQLTDNTILIFTSDNGPVIDDGYQDQAFERLNGHTPMGIYRGGKYSAYEAGTRIPFIVRWPAKVKPNKQQALFSQIDIFASLAALLKQPLPEDAAPDSQEHLNTLLGKDYTSREYIVQQNLNNTLAIVKGQWKYIEPSDAPAIEYWTKMELGNDRHPQLYDLSADPSEKNNVAKQHPEVVRELSELLESVKTR
B2: BT4656^6S-GlcNAc/GlcNS (enzyme, UniProt Q89YS5 1-558)
chain: MPATEKASAPHWSFLSSDVISIMKSNPSTLLLPLAALSLASCANPQKEETKRPNIIFMMTDDHTTQAMSCYGGNLIQTPNMDRIANEGIRFDNCYAVNALSGPSRACILTGKFSHENGFTDNASTFNGDQQTFPKLLQQAGYQTAMIGKWHLISEPQGFDHWSILSGQHEQGDYYDPDFWEDGKHIVEKGYATDIITDKAINFLENRDKNKPFCMMYHQKAPHRNWMPAPRHLGIFNNTIFPEPANLFDDYEGRGKAAREQDMSIEHTLTNDWDLKLLTREEMLKDTTNRLYSVYKRMPSEVQDKWDSAYAQRIAEYRKGDLKGKALISWKYQQYMRDYLATVLAVDENIGRLLNYLEKIGELDNTIIVYTSDQGFFLGEHGWFDKRFMYEECQRMPLIIRYPKAIKAGSTSSAISMNVDFAPTFLDFAGVEVPSDIQGASLKPVLENEGKTPADWRKAAYYHYYEYPAEHSVKRHYGIRTQDFKLIHFYNDIDEWEMYDMKADPREMNNIFGKAEYAKKQKELMQLLEETQKQYKDNDPDEKETVLFKGDRRLMENR

What was measured:
[1] = target: BT3333^6S-GalNAc (Bacteroides thetaiotaomicron) (UniProt Q8A2H2); assay: SEC-MALS
[2] = target: BT4656^6S-GlcNAc/GlcNS (Bacteroides thetaiotaomicron) (UniProt Q89YS5); assay: SEC-MALS

Row | Binder | binding [1] | binding [2]
1 | B1 | no binding | 
2 | B2 |  | no binding
